No constants are given. Whether binding was seen depends on the method and setting. In cells and extracts the contact can be indirect. Some results given as binding are weak or reduced against the parent protein; the word gives no strength.
Columns and labels:
[1] = molecular target: API2, full-length, Flag-bio-tagged (UniProt Q13489); assay: pull-down; biotin-immunoprecipitation (bio-IP): Flag-bio-tagged bait transiently expressed in HEK-293T with BirA (in Fig 3A together with HA-Ub), non-denaturing NDLB lysate, captured on streptavidin-coated paramagnetic beads; immunoblot for endogenous BCL10 and TRAF6
MALT1, Flag-bio-tagged = MALT1, Flag-bio-tagged (UniProt Q9UDY8); assay: as above

Chains of the proteins cited; added tags and fusions are not shown.
UniProt Q13489: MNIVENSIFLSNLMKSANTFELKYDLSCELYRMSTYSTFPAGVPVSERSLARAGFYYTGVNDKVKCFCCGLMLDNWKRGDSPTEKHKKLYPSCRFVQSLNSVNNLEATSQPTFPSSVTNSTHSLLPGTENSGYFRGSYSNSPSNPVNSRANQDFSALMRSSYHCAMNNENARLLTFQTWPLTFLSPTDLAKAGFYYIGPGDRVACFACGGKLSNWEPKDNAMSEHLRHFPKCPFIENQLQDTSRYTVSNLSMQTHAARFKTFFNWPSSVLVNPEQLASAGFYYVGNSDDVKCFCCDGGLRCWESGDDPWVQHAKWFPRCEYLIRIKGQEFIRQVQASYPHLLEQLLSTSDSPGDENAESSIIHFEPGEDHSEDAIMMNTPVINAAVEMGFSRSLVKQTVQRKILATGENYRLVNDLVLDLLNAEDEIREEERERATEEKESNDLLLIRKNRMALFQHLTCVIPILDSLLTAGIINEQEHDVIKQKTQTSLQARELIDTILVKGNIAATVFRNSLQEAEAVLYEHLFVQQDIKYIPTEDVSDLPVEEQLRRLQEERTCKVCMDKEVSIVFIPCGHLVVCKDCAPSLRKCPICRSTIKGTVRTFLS
UniProt Q9UDY8: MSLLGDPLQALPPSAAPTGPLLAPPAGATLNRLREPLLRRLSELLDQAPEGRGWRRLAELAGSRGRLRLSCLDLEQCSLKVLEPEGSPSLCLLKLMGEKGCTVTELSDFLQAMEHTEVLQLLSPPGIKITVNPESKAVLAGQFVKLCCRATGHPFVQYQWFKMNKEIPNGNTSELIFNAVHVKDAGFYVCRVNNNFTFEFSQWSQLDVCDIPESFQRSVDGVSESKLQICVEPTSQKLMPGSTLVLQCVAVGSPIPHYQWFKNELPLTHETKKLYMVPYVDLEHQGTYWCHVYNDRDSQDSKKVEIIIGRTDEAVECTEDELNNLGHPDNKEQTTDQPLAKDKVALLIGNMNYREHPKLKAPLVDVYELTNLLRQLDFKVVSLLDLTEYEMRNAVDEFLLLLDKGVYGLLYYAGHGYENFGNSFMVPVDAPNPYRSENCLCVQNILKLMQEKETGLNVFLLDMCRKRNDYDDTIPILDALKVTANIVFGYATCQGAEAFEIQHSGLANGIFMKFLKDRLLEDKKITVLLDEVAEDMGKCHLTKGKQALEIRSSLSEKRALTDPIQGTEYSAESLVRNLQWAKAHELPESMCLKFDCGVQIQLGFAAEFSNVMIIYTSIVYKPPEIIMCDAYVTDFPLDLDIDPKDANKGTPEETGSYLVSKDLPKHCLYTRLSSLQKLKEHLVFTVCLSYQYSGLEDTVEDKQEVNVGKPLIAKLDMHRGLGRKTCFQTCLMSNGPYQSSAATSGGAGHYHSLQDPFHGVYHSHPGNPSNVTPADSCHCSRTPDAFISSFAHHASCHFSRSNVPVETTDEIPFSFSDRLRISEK

B1: BCL10, endogenous in HEK-293T (protein, UniProt O95999 1-233)
chain: MEPTAPSLTEEDLTEVKKDALENLRVYLCEKIIAERHFDHLRAKKILSREDTEEISCRTSSRKRAGKLLDYLQENPKGLDTLVESIRREKTQNFLIQKITDEVLKLRNIKLEHLKGLKCSSCEPFPDGATNNLSRSNSDESNFSEKLRASTVMYHPEGESSTTPFFSTNSSLNLPVLEVGRTENTIFSSTTLPRPGDPGAPPLPPDLQLEEEGTCANSSEMFLPLRSRTVSRQ
B1 was tested, and the binding [1] was “no binding” and the binding (MALT1, Flag-bio-tagged) was “binds”.
